Reference: paper doi:10.1101/216143
No constants are given. Whether binding was seen depends on the method and setting. In cells and extracts the contact can be indirect. Some entries that bind do so weakly or less than the wild type.

Chains of the proteins cited; added tags and fusions are not shown. Lines headed by an entry give the natural chain unless they say otherwise; changes in a name come on top.
UniProt Q9Y2J8: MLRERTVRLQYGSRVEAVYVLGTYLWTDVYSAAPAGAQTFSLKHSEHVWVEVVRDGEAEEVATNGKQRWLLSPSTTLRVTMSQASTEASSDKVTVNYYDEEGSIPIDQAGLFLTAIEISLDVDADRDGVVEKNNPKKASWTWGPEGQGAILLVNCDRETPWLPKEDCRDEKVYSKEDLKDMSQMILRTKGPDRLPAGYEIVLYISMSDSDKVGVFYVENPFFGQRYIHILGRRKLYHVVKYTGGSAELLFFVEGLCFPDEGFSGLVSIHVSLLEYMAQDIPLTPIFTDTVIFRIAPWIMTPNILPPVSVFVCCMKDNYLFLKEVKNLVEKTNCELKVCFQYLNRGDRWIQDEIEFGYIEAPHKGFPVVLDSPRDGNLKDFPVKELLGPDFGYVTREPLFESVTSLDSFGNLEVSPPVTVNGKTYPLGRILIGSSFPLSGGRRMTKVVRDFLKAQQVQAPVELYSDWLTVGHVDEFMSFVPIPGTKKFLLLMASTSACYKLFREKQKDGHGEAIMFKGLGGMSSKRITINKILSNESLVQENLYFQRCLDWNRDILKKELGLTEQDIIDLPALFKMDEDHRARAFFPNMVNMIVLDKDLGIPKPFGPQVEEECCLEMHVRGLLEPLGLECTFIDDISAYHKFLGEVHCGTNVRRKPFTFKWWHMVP
UniProt P50750: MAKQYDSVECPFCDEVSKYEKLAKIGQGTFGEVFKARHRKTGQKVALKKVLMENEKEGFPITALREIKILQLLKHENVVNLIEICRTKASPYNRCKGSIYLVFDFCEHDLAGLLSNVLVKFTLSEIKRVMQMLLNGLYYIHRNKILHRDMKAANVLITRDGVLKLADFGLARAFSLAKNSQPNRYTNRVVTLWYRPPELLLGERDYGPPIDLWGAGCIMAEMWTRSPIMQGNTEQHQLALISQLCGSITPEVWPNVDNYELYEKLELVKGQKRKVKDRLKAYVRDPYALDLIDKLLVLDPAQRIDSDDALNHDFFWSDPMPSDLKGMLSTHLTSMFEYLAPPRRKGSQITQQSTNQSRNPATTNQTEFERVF
UniProt O60563: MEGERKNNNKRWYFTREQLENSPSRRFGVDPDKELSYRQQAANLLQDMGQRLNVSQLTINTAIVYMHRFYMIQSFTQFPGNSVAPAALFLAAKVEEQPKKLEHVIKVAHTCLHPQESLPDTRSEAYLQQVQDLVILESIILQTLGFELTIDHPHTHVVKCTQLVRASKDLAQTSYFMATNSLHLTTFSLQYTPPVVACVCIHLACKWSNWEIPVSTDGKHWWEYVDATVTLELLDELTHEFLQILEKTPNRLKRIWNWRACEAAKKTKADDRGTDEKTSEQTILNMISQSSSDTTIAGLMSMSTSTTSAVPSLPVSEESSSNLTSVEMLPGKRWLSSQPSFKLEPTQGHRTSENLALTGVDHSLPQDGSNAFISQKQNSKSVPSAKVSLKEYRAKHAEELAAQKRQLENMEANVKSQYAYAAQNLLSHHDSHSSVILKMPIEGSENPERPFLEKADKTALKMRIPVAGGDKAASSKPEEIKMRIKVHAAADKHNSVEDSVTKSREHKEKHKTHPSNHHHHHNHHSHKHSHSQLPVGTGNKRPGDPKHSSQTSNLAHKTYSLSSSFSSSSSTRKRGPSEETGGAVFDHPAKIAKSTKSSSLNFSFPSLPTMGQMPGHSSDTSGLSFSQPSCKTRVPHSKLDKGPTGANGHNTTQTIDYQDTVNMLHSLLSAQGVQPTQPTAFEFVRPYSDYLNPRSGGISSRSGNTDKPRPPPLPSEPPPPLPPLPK

Tests used:
[1] = biological target: PADI2 (peptidyl arginine deiminase 2), endogenous (human (endogenous in T47D and MCF7)) (UniProt Q9Y2J8); test: co-IP
[2] = biological target: P-TEFb (positive transcription elongation factor b) kinase complex, endogenous (human (endogenous in T47D and Raji)) (UniProt P50750+O60563); test: co-IP

P-TEFb (positive transcription elongation factor b) kinase complex, endogenous (from UniProt P50750 1-372; O60563 1-726)
binding [1]: binds

PADI2 (peptidyl arginine deiminase 2), endogenous (from UniProt Q9Y2J8 1-665) (enzyme)
binding [2]: binds
